# ± gives the standard deviation. The entries are a selection whose mix differs from that of the whole data set. Many entries were measured with a wide error.
# System: MIWI (PIWIL1) piRISC loaded with piRNA #2 (30 nt)
# Test: pre-steady-state target cleavage rate (min^-1); MIWI and MILI are mouse PIWI proteins and EfPiwi is from a freshwater sponge; tags in brackets are library labels; higher = faster piRNA-guided slicing of the target
# Settings: guide: piRNA #2 5'p-UUAGGUAACCCAGUAGAUCCAGAGGAAUUC; auxiliary factor: 500 nM mouse GTSF1
# Method: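 Cleave-'n-Seq: a library of target RNAs (target site embedded in constant flanks, ACAGCATTCCGCGTTAGTGATATCCG... 5' flank; DNA-blocked outside the site) at 0.1 nM was incubated with 1 nM active mouse MILI or MIWI piRISC (synthetic 5'-monophosphorylated piRNA guide) with or without 500 nM mouse GTSF1 at 33 °C for 1 min to 16 h. Uncleaved targets were sequenced and normalised to non-target controls, and the pooled three trials were fitted to a burst-and-steady-state model to give the pre-steady-state cleavage rate (min^-1; k3 is constrained to at most 1e-4). Sequence is the target site only; target names encode pairing extent (gX:gY) and contiguous / 1-mismatch / 2-mismatch / bulge geometry. Fits with R² ≤ 0 are excluded.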
row,Sequence,pre-steady-state target cleavage rate
1,CUUAACCUCUGGAUCUACGUGGGUUACCUAA,0.000871 ± 0.0095
2,CUUAAGGACUGGAUCUACUCGGUUAGCUAA,0.00432 ± 0.012
3,CUUAAGGAGACGAUCUACUGCGUUACGUAA,0.00199 ± 0.0033
4,CUUAAGGAGAGGAUCUACUCCGUUACCUAA,0.000186 ± 0.056
5,CUUAAGGAGAGGAACUACUGGGUUACCUUA,0.00068 ± 0.0095
6,CUUAAGGAGACCUACUACUCCCUUACCUAA,0.00023 ± 0.019
7,CUUAAGGUCUGGAUCUCACUGGGUUACCUAA,0.000112 ± 0.044
8,CUUAAGGAGACCAUCUACUGGGUUACCUAC [g2:g18:cont:t1C],0.00157 ± 0.0042
9,CUUAUCCUCUGGAUCUACUGGAGUUACCUAA,0.00314 ± 0.0048
10,CUUAAGGAGAGGAUCUACUCGGUUACGUAA,0.000751 ± 0.021
11,CUUAAGGAGACCUAGUACCUGGGUUACCUAA,0.00121 ± 0.0076
12,CUUAACCUGUGGAACUACUGGGUUACCUAA,0.177 ± 0.048
13,CUUAACCUCUGGAUCUACUGAGGUUACCUAA,0.00156 ± 0.0084
14,CUUAACCUCUGGAACUACUGGGUUAGCUAA,0.103 ± 0.016
15,CUUAAGGAGUGGAUUACUGGGUUACCUAA,0.00205 ± 0.007
16,CUUAAGGACUCGAUCUAGUGGGUUACCUAA,0.00313 ± 0.0036
17,CAAUUCCUCUGGAACUACUGGGUUACGUAA,0.517 ± 0.048
18,CUUAAGGAGACCAUCAUCUGGGUUACCUAA,0.00134 ± 0.0047
19,CAAUUCCUCUCGAUCUACAGGGUUACCUAA,0.546 ± 0.038
20,CUUAAGGAGACCAUCUACUGGGUUACCAAA,0.00207 ± 0.0035
21,CUUAAGGUCUGGAACUAGUGGGUUACCUAA,0.0577 ± 0.017
22,CUUAAGGAGACCAUCUACUAGGUUACCUAA,0.00234 ± 0.0046
23,CUUAAGGACUGGAUCUACUGGGUUAGGAUA [g6:g22:cont:t1A],0.000503 ± 0.029
24,CUUAAGGAGACGAUCUACUGGGUUAGCUAA,0.000305 ± 0.013

row,Sequence,pre-steady-state target cleavage rate
1,CUUAACCUCUGGAUCUACUUGGGUUACCUAA,0.000903 ± 0.0073
2,CUUAAGGAGACGAUCUUGAGGGUUACCUAA,0.00115 ± 0.0092
3,CUUAAGGACUGCAUCUACUGGCUUACCUAA,0.00289 ± 0.014
4,CUUAAGGAGACCAUCUACAGGGUUACCUAA,0.00269 ± 0.0043
5,CUUAAGGAGACCUACUACUGGGUUGACCUAA,0.00326 ± 0.0034
6,CUUAAGGAGACCUAGAUCUGGGUAUGCUAA,0.000168 ± 0.032
7,CUUAAGGAGACGAUCAACUGGGUUACCUAA,0.000784 ± 0.011
8,CUUAAGGAGACCUAGAUCUGGGUUAUCCUAA,0.00132 ± 0.0069
9,CUUAAGGAGACCUACUCCUGGGUUACCUAA,0.00206 ± 0.0039
10,CUUAAGGACUCGAUCUACUGGGUAACCUAA,0.00173 ± 0.02
11,CUUAAGCUCUGGAUCUACUGGGUAUGGAUA [g8:g24:cont:t1A],0.0011 ± 0.011
12,CUUAAGGAGACCUACUACUGGGUUACGAAA,0.00097 ± 0.0074
13,CUUAAGGAGACGAUCAUACUGGGUUACCUAA,0.000571 ± 0.016
14,CUAUUCCUCUGGAUCUACUUGGUUACCUAA,0.00335 ± 0.0054
15,CAAUUCCUCUGGUUCUACUGGGUUACCUAA,0.868 ± 0.05
16,CUUAAGCUCUGGAUCUAGACGGUUACCUAA,0.000313 ± 0.02
17,CUUAAGGAGACCUACUACUGGCUAACCUAA,0.000762 ± 0.0076
18,CUUAAGGAGACCUACUACUGGGGUACCUAA,0.000698 ± 0.0094
19,CUUAAGGAGUAGAUCUACUGGGUUACCUAA,0.00567 ± 0.0048
20,CUUAAGGAGAGGAUCUACACGGUUACCUAA,0.000532 ± 0.0093
21,GAAUUCCUCUGGAUCUACUGGUGUUACCUAA,0.0068 ± 0.0031
22,CUUUUUCCUCUGGAUCUACUGGGUUACCUAA,0.308 ± 0.046
23,CUAUACCUCUGGAUCUACUGGGUUACGUAA,0.674 ± 0.032
24,CAAUUCCUCUGGAUCUACUGGCUUAGCUAA,0.00113 ± 0.013

# Looked up above:
# For pre-steady-state target cleavage rate, CUUAAGGACUGGAUCUACUCGGUUAGCUAA has the entry 0.00432 ± 0.012
# For pre-steady-state target cleavage rate, CUUAAGGAGACCUACUCCUGGGUUACCUAA has the entry 0.00206 ± 0.0039
# For pre-steady-state target cleavage rate, CAAUUCCUCUCGAUCUACAGGGUUACCUAA has the entry 0.546 ± 0.038

# Later entries:

row,Sequence,pre-steady-state target cleavage rate
1,CUUAAGGAGAGGAUCUACUGGGUGUACCUAA,0.0042 ± 0.0067
2,CUUAAGGUCUGGAUGUACUGGCUUACCUAA,0.0442 ± 0.028
3,CUUAAGGAGACCAUCUACUGGGUUUACCUAA,0.00174 ± 0.0057
4,CUUAAGGAGACCAUCUACAGGCUUACCUAA,0.00254 ± 0.0033
5,CUUAAGGAGACGAUGUACUGGGUUUCCUAA,0.000696 ± 0.0074
6,CUUAAGGAGUGGAUCUACUGCGAUACCUAA,0.00391 ± 0.004
7,CUUAACCUCUCGAUCUACUGCGUUACCUAA,0.614 ± 0.057
8,CUAUUCCUCUCGAUCUACUGGGUUACGUAA,0.935 ± 0.047
9,CUAUUCCUCUGGAUCUACUGGGUUACCAUAA,0.553 ± 0.069
10,CUUUUCCUCUGGAUCUACUGGGUUACCUAA [g2:g27:cont:t1A],0.408 ± 0.057
11,CUUAAGGAGACCUUCUCCUGGGUUACCUAA,0.00234 ± 0.0064
12,CUUAAGGAGAGCAUCUAGUGGGUUACCUAA,0.00149 ± 0.0063
13,CUUAAGGAGACGAUCUACUGGCUUACCUUA,0.000844 ± 0.0086
14,CUUAAGGAGACCUAGUACCGGGUUACCUAA,0.000326 ± 0.026
15,CUUAAGGACUGGAUCAUCUGGGUUACCUAA,0.0065 ± 0.011
16,CUUAACCUCUGGAUCUACCUGGGUUACCUAA,0.00134 ± 0.0079
17,CUUAAGGAGACCACUCUACUGGGUUACCUAA,0.00288 ± 0.0061
18,CUUAAGGAGACCUACUACUGGGUGACCUAA,0.00085 ± 0.0096
19,CUUAAGGAGACCUACUACUGGGUAACCAAA,0.000293 ± 0.013
20,CAAUUCCUUGGAUCUACUGGGUUACCUAA,0.45 ± 0.061
21,CUUAAGGAGACGAUCCUACUGGGUUACCUAA,0.00122 ± 0.0043
22,CUUAUCCUCUGGAUCUACUCCCUUACCUAA,0.00136 ± 0.0093
